Results deposited as PubChem BioAssay AID1259308 (NCATS, 2017).

Assay: 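Genes whose loss raises luciferase production in HEK293 cells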 (primary screen)
System: human HEK293 embryonic kidney cells stably expressing firefly luciferase (HEK-CMV-Luc2-Hygro)
Reagent: single siRNA against human genes, 0.8 pmol siRNA per well
Time to read-out: 72 h
Measurement: 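Luciferase light (ONE-Glo) measured on one replicate plate set and viability (CellTiter-Glo) on the other, scaled to a negative control siRNA, with robust z-scores and luciferase per cell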
Scale: total luciferase, z-score: higher = more reporter protein produced
Active means: 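Active when the median/MAD z-score for overall luciferase is greater than 3; a gene was taken forward for validation with new siRNAs if at least two of its three siRNAs passed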
Meaning of the calls: active = raised luciferase; inactive = no rise
Shown is one part, drawn at random, of about 59,000 reagents tested. Of all reagents, about 1,510 (2.6%) are marked active. 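Calls use total luciferase alone and ignore viability, so some active siRNAs may act by altering cell number.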 Entries without a mark were called inactive. The numbers tell different reagents against one gene apart. Not all columns of the deposit are shown.

With knock-down of MOSPD3 (GeneID 64598) #1 the results were total luciferase, z-score 0.549.
For MOSPD3 (GeneID 64598) #2, the entry reads total luciferase, z-score 0.584.
Against MOSPD3 (GeneID 64598) #3, the values are total luciferase, z-score -0.204.
After knock-down of ARG2 (GeneID 384) #1 the results were total luciferase, z-score -0.777.
With knock-down of ARG2 (GeneID 384) #2, the record shows total luciferase, z-score -0.776.
ARG2 (GeneID 384) #3 gave total luciferase, z-score 1.49.
With knock-down of CDR2L (GeneID 30850) #1 the results were total luciferase, z-score -0.486.
CDR2L (GeneID 30850) #2 showed total luciferase, z-score -0.648.
CDR2L (GeneID 30850) #3 scored total luciferase, z-score -0.384.
After knock-down of ITGB3 (GeneID 3690) #1 the results were total luciferase, z-score 0.0568.
Silencing of ITGB3 (GeneID 3690) #2 came out at: total luciferase, z-score -0.269.
After knock-down of ITGB3 (GeneID 3690) #3, the record shows total luciferase, z-score 0.109.

Laid out differently: 2 of the entries above
{"gene": "ARG2 (GeneID 384)", "reagent no.": 3, "total luciferase, z-score": 1.49}
{"gene": "CDR2L (GeneID 30850)", "reagent no.": 1, "total luciferase, z-score": -0.486}

The results go on.
Knock-down of PLA2G4E (GeneID 123745) #1 resulted in: total luciferase, z-score 0.203.
Depletion of PLA2G4E (GeneID 123745) #2 gave: total luciferase, z-score 0.123.
Knock-down of PLA2G4E (GeneID 123745) #3 gave: total luciferase, z-score -0.851.
Silencing of CCNT2 (GeneID 905) #1 resulted in: total luciferase, z-score 2.1.
CCNT2 (GeneID 905) #2 scored total luciferase, z-score -1.79.
Against CCNT2 (GeneID 905) #3, the values are total luciferase, z-score -0.0692.
For TMEM256 (GeneID 254863) #1, the values are total luciferase, z-score 1.1.
Depletion of TMEM256 (GeneID 254863) #2 resulted in: total luciferase, z-score -0.0197.
Against TMEM256 (GeneID 254863) #3, the entry reads total luciferase, z-score 2.57.
